The list shows a part of the results.
Columns and labels:
Experiment in all cases: log2 fold change, soluble protein after heating vs DMSO (PISA); higher = thermal stabilisation; K562 cells, 10 uM, 30 min; active = over 0.2 and 3.5 SD of the protein, either way, in both replicates (recomputed)
[1] = compound: COC1=CC=C(C=C1)CN2C=CC3=C2C=C(C=C3)C(=O)NO
How it was run: (§1)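 Values are thermal stability changes relative to control samples and are taken from duplicates. They are stated as log2 fold changes. Before quantification by TMTpro 16plex LC-MS/MS with equalised channel sums, K562 cells at 2×10^6 cells/mL were treated with 10 μM compound for 30 min, heated in aliquots for 3 min across 48°C-58°C, pooled, extracted in PBS with 0.5% NP-40 at 4°C, and centrifuged at 21,000xg for 90 min to give the soluble supernatant.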

Protein sequences, listed by entry. Tags and fused reporters are not part of them. Lines headed by an entry give the natural chain unless they say otherwise; changes in a name come on top.
UniProt Q96RR1: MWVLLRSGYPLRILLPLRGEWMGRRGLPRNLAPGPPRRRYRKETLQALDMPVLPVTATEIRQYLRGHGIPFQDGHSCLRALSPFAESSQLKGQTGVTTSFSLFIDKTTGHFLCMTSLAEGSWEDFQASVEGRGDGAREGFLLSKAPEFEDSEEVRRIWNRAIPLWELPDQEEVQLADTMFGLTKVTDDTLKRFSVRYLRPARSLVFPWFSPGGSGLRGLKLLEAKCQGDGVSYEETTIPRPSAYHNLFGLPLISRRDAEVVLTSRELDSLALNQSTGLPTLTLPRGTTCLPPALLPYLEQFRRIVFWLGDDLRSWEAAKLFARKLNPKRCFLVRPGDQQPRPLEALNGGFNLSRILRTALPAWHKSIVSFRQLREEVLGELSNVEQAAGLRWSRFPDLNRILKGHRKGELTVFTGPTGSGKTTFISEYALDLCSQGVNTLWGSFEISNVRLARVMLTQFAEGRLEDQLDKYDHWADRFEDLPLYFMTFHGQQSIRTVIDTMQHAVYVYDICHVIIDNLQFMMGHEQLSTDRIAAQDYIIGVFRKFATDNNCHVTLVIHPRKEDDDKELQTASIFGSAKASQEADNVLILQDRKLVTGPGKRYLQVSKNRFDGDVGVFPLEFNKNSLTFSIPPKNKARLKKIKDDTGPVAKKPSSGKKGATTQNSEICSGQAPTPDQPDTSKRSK
UniProt Q3B726, whole entry, looked up: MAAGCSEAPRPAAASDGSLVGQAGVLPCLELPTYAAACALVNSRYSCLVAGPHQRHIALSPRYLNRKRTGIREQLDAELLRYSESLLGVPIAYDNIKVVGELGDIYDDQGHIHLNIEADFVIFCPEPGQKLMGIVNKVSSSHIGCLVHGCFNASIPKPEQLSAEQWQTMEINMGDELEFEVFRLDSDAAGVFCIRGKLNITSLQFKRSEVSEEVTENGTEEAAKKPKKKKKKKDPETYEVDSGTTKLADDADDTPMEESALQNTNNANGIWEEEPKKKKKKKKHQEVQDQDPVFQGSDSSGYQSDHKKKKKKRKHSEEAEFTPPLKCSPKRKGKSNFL
UniProt O14817: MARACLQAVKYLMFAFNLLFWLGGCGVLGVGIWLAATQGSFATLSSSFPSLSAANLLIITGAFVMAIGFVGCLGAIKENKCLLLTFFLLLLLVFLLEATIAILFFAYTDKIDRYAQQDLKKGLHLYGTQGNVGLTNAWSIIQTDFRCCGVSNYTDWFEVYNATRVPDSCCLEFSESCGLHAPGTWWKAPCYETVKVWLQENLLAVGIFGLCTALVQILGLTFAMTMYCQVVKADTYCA
UniProt A6NNZ2, whole entry, looked up: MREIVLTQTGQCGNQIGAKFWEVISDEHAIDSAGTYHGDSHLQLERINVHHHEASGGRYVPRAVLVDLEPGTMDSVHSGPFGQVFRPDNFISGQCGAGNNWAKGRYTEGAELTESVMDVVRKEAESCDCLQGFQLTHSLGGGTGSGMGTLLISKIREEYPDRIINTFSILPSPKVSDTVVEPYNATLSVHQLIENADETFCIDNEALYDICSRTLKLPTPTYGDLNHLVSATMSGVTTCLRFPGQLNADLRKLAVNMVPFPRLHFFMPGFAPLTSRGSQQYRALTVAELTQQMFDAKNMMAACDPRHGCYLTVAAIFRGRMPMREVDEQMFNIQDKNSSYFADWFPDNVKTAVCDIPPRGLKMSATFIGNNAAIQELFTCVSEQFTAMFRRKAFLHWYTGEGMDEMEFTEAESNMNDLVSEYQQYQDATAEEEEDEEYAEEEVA
UniProt Q7Z4L5: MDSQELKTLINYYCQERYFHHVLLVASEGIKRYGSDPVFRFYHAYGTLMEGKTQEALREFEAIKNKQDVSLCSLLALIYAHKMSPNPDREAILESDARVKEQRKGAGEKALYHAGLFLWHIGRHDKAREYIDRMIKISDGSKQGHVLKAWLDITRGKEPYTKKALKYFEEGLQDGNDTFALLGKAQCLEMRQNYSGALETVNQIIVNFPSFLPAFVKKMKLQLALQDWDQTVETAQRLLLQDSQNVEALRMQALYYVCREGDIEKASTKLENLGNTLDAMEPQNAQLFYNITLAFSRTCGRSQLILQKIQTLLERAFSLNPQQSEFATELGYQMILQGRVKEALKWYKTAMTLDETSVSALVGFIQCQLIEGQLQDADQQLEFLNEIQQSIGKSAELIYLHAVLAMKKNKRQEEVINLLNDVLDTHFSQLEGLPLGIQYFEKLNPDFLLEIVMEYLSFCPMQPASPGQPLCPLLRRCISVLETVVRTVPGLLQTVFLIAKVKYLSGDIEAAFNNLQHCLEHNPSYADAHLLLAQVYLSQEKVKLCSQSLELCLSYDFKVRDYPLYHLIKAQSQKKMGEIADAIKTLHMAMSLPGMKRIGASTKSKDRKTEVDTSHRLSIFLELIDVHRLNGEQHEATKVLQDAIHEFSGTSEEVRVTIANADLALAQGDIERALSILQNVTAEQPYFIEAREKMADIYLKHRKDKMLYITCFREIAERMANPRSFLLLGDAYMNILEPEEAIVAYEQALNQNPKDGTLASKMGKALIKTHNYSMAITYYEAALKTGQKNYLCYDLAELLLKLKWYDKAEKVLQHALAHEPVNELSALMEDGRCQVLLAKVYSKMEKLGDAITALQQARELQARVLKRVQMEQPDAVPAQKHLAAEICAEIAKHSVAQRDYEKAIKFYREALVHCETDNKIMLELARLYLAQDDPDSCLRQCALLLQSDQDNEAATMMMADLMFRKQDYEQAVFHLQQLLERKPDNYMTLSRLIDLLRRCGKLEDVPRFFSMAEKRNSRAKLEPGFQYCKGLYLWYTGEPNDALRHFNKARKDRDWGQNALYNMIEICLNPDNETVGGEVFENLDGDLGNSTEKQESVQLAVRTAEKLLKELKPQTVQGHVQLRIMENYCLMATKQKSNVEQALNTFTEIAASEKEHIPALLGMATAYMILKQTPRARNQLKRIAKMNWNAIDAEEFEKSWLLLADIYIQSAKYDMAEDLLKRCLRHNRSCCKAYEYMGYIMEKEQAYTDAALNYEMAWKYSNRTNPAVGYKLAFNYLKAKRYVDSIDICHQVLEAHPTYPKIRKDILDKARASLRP
UniProt O14933: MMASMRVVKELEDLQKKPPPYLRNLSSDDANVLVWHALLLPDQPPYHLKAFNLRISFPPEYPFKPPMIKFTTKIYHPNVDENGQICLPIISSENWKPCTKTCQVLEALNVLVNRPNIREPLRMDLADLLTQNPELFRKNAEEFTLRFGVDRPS
UniProt Q8WUA8: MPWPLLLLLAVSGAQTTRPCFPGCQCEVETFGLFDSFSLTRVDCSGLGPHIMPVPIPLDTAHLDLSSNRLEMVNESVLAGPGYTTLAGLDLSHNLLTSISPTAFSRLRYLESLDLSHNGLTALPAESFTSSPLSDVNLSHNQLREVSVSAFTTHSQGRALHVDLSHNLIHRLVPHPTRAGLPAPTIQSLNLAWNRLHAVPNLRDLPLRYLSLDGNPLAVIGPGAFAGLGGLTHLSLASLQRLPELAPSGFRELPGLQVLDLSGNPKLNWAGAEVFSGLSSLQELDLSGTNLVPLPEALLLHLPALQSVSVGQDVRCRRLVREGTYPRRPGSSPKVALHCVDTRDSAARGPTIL
UniProt P51668: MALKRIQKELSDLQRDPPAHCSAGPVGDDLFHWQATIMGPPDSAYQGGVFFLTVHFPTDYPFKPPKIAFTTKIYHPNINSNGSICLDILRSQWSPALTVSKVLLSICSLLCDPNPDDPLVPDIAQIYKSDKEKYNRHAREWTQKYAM
UniProt Q8NBP0: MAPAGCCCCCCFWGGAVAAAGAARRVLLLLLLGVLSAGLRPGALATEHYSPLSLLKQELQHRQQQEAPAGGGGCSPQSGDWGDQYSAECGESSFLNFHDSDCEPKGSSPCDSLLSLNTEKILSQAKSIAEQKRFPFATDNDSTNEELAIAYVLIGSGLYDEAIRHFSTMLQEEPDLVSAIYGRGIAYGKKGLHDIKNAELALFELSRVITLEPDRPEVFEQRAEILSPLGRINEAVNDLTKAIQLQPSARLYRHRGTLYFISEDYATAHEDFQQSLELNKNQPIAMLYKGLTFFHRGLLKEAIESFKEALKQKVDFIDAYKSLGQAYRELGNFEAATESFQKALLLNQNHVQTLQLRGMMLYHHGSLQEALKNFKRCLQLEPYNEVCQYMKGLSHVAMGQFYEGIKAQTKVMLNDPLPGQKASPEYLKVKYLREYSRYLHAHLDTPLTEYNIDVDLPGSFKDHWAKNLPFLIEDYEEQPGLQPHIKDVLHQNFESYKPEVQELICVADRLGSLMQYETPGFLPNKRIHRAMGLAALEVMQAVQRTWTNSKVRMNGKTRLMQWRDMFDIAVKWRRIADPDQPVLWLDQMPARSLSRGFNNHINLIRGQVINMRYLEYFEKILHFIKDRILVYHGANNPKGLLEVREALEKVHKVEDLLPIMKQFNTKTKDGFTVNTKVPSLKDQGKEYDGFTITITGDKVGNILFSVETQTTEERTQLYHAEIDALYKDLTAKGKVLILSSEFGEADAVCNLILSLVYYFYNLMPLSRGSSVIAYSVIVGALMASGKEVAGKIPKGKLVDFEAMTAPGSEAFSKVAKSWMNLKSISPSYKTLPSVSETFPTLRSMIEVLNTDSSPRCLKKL
UniProt Q8N2K1: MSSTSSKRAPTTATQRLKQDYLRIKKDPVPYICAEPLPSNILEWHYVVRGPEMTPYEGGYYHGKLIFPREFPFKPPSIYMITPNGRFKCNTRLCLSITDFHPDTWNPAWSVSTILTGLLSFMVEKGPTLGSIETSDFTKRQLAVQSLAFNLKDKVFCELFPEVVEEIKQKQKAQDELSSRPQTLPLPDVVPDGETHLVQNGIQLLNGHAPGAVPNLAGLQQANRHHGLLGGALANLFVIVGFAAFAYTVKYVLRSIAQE
UniProt Q96ET8: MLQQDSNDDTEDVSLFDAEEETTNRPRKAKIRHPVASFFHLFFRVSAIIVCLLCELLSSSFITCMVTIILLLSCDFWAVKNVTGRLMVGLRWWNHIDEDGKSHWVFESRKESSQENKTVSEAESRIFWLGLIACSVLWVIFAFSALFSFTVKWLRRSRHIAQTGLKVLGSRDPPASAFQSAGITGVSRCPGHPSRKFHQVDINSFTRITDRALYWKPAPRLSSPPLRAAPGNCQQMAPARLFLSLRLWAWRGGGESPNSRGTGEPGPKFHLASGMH
UBE2L5, A0A1B0GUS4, UniProt A0A1B0GUS4, whole entry, looked up: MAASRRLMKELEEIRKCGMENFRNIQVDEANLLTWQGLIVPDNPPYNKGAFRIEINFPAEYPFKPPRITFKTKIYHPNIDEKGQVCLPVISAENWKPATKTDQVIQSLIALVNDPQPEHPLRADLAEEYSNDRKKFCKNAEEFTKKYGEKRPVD
UniProt Q8N0Z6: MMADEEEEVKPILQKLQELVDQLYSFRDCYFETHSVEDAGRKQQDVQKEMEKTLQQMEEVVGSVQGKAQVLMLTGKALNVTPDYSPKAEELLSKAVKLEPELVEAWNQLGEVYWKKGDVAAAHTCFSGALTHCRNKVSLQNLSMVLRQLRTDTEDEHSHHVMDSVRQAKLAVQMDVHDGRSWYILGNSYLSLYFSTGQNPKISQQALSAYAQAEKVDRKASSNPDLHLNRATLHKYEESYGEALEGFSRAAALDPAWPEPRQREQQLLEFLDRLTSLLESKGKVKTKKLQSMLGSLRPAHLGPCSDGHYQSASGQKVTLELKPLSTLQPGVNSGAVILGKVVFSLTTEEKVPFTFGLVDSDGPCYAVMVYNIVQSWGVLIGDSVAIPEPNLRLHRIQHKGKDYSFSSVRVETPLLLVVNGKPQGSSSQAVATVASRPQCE
UniProt Q06418: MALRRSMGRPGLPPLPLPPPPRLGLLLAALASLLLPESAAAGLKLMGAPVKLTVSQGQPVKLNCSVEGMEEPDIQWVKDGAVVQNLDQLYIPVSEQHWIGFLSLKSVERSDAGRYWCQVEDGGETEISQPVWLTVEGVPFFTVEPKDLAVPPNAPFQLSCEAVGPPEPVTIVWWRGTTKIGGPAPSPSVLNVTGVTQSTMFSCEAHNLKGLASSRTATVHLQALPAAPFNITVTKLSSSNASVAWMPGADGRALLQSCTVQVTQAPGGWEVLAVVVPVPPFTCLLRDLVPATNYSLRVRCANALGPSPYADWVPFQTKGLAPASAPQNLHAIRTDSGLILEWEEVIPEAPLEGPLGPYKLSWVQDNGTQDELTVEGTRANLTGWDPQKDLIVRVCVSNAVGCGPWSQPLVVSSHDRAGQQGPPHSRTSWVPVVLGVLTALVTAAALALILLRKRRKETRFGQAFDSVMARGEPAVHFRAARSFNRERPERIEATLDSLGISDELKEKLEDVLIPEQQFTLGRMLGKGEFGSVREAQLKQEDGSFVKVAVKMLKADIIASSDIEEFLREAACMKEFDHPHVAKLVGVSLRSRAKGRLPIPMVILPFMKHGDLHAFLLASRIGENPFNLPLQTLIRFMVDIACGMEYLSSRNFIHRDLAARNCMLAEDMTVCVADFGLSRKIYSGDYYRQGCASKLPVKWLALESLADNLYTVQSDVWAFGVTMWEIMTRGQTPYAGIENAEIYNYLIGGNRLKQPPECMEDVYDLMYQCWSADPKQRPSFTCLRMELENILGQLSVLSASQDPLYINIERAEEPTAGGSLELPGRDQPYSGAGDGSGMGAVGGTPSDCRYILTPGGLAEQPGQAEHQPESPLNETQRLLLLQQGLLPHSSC

filanesib = compound: CON(C)C(=O)N1N=C(c2cc(F)ccc2F)S[C@@]1(CCCN)c1ccccc1 [filanesib]
How it was run: as §1

zotarolimus = compound: CO[C@H]1C[C@@H]2CC[C@@H](C)[C@@](O)(O2)C(=O)C(=O)N2CCCC[C@H]2C(=O)O[C@H]([C@H](C)C[C@@H]2CC[C@H](n3cnnn3)[C@H](OC)C2)CC(=O)[C@H](C)/C=C(\C)[C@@H](O)[C@@H](OC)C(=O)[C@H](C)C[C@H](C)/C=C/C=C/C=C/1C [zotarolimus]
How it was run: as §1

[2] = compound: COc1cc2nc(-c3cc(F)ccc3O)nc(N[C@@H]3CNC[C@H]3C(C)(C)O)c2cc1OC
How it was run: as §1

gefitinib = compound: COc1cc2ncnc(Nc3ccc(F)c(Cl)c3)c2cc1OCCCN1CCOCC1 [gefitinib]
How it was run: as §1

lapatinib = compound: CS(=O)(=O)CCNCc1ccc(-c2ccc3ncnc(Nc4ccc(OCc5cccc(F)c5)c(Cl)c4)c3c2)o1 [lapatinib]
How it was run: as §1

idasanutlin = compound: COc1cc(C(=O)O)ccc1NC(=O)[C@@H]1N[C@@H](CC(C)(C)C)[C@](C#N)(c2ccc(Cl)cc2F)[C@H]1c1cccc(Cl)c1F [idasanutlin]
How it was run: as §1

pictilisib = compound: CS(=O)(=O)N1CCN(Cc2cc3nc(-c4cccc5[nH]ncc45)nc(N4CCOCC4)c3s2)CC1 [pictilisib]
How it was run: as §1

alisertib = compound: COc1cc(Nc2ncc3c(n2)-c2ccc(Cl)cc2C(c2c(F)cccc2OC)=NC3)ccc1C(=O)O [alisertib]
How it was run: as §1

[3] = compound: COc1cccc2cc(-c3nc([C@H]4CC[C@H](C(=O)O)CC4)n4ncnc(N)c34)[nH]c12
How it was run: as §1

Measured: log2 fold change

UBE2K (UniProt D6RDM7)
inactive: [1] -0.251 | filanesib 0.078 | zotarolimus -0.273 | [2] 0.162 | gefitinib 0.082 | lapatinib -0.167

TUBB2B (UniProt Q9BVA1)
inactive: [1] -0.055 | filanesib -0.005 | zotarolimus 0.015 | idasanutlin 0.045 | [2] 0.115 | gefitinib 0.025 | lapatinib -0.013 | pictilisib -0.157

TXNRD1 isoform 7 (UniProt Q16881)
inactive: filanesib -0.034 | [2] 0.242 | lapatinib -0.07 | pictilisib 0.037

TTC14 (UniProt Q96N46)
inactive: filanesib -0.077 | zotarolimus 0.006

Retrieved one by one from the list above, two records:
UBE2K (UniProt D6RDM7)
inactive: [1] -0.251 | filanesib 0.078 | zotarolimus -0.273 | [2] 0.162 | gefitinib 0.082 | lapatinib -0.167

TXNRD1 isoform 7 (UniProt Q16881)
inactive: filanesib -0.034 | [2] 0.242 | lapatinib -0.07 | pictilisib 0.037

Going on with the list:

TSPYL1 (UniProt Q9H0U9)
inactive: zotarolimus 0.102 | idasanutlin -0.034 | [2] -0.08 | gefitinib 0.157 | lapatinib 0.103

TWNK (UniProt Q96RR1)
inactive: idasanutlin -0.156 | gefitinib -0.094

TUT4 (UniProt Q5TAX3)
inactive: [1] -0.265 | filanesib 0.092 | zotarolimus -0.237 | alisertib -0.02 | [2] 0.158 | gefitinib 0.051 | [3] -0.025 | lapatinib 0.021 | pictilisib 0.009

TYW5 (UniProt A2RUC4)
inactive: idasanutlin -0.002 | alisertib 0.068 | [2] -0.045 | [3] -0.036 | lapatinib -0.066 | pictilisib 0.13

UBAP2L (UniProt F8W726)
inactive: alisertib -0.074 | [2] -0.069 | gefitinib -0.012 | [3] -0.084 | lapatinib 0.067 | pictilisib 0.078

TWISTNB (UniProt Q3B726)
inactive: filanesib 0.007 | zotarolimus 0.138 | alisertib -0.148 | [2] -0.027 | [3] -0.103 | lapatinib -0.007 | pictilisib -0.069

TYK2 (UniProt P29597)
inactive: filanesib 0.062 | [2] 0.007 | lapatinib 0.052

TUBGCP4 (UniProt Q9UGJ1)
inactive: [1] -0.181 | filanesib 0.672 | zotarolimus -0.044 | idasanutlin 0.113 | [2] 0.03 | lapatinib 0.086

TUBGCP6 (UniProt Q96RT7)
inactive: [1] -0.111 | idasanutlin -0.207

TSPAN4 (UniProt O14817)
inactive: alisertib -0.087 | [3] 0.095

TTC37 (UniProt Q6PGP7)
inactive: [1] -0.898 | idasanutlin -0.056

TUBB8B (UniProt A6NNZ2)
inactive: [1] 0.005 | filanesib -0.109 | zotarolimus -0.061 | alisertib -0.076 | gefitinib 0.004 | [3] 0.107

TSPAN13 (UniProt O95857)
inactive: filanesib -0.041 | zotarolimus 0.022 | alisertib -0.164 | [2] -0.013 | gefitinib 0.047 | [3] -0.064 | lapatinib -0.053 | pictilisib 0.053

TTC21B (UniProt Q7Z4L5)
inactive: [2] 0.258 | lapatinib -0.177

TUT7 (UniProt Q5VYS8)
inactive: [1] -0.151 | filanesib 0.592 | zotarolimus -0.203 | idasanutlin -0.09 | gefitinib -0.218 | pictilisib 0.07

TXNDC2 (UniProt Q86VQ3)
inactive: filanesib -0.117 | idasanutlin -0.029 | [2] 0.001 | gefitinib -0.09 | lapatinib -0.037

TUSC2 (UniProt O75896)
inactive: [1] 0.081 | filanesib -0.05 | alisertib -0.186 | gefitinib -0.1 | [3] 0.281

TUBD1 (UniProt Q9UJT1)
inactive: [1] -0.104 | filanesib -0.014 | idasanutlin 0.156 | [2] 0.335 | lapatinib -0.186

TUBB8 (UniProt Q3ZCM7)
inactive: [1] 0.073 | filanesib -0.005 | gefitinib 0.006

UBE2L6 (UniProt O14933)
inactive: idasanutlin 0.194

TTR (UniProt P02766)
inactive: idasanutlin -0.176 | alisertib -0.28 | [3] -0.034

UBE2E1 (UniProt P51965)
inactive: [1] 0.054 | filanesib -0.113 | idasanutlin -0.185 | alisertib -0.19 | [2] 0.033 | gefitinib -0.017 | [3] 0.288 | lapatinib 0.036 | pictilisib 0.053

TTC12 isoform 2 (UniProt Q9H892)
inactive: [1] -0.393 | filanesib 0.473 | zotarolimus -0.224 | alisertib 0.022 | gefitinib -0.04 | [3] 0.085

TSKU (UniProt Q8WUA8)
inactive: zotarolimus -0.071 | [2] 0.204 | lapatinib 0.046

TUBA4A (UniProt C9JJQ8)
inactive: [1] 0.083 | filanesib 0.016 | zotarolimus -0.041 | [2] 0.052 | lapatinib 0.018

TTC17 isoform 2 (UniProt Q96AE7)
inactive: [1] -0.037 | [2] 0.134 | lapatinib 0.008 | pictilisib -0.02

UBE2D1 (UniProt P51668)
inactive: filanesib -0.003 | zotarolimus -0.006 | idasanutlin -0.083 | alisertib 0.094 | [2] 0.137 | gefitinib -0.012 | [3] 0.002 | lapatinib -0.063 | pictilisib 0.021

TTC13 (UniProt Q8NBP0)
inactive: [1] -0.203 | filanesib 0.26 | zotarolimus 0.057 | idasanutlin -0.058 | pictilisib 0.054

UBE2J2 isoform 3 (UniProt Q8N2K1)
inactive: filanesib 0.146 | zotarolimus -0.031 | idasanutlin 0.092 | [2] 0.134 | lapatinib -0.07 | pictilisib -0.145

TVP23C (UniProt Q96ET8)
inactive: zotarolimus -0.006 | idasanutlin -0.124 | alisertib 0.007 | [2] -0.024 | [3] 0.235 | lapatinib -0.14 | pictilisib -0.029

TSPAN17 isoform 4 (UniProt Q96FV3)
inactive: filanesib -0.023

UBE2L5, A0A1B0GUS4
inactive: zotarolimus -0.533

U2AF1L5 (UniProt P0DN76)
inactive: [1] -0.034 | idasanutlin -0.051 | alisertib -0.517 | gefitinib -0.048 | [3] -0.238

TTC5 (UniProt Q8N0Z6)
inactive: filanesib -0.009

TYRO3 (UniProt Q06418)
inactive: [1] -0.053 | filanesib -0.045 | gefitinib 0.048

TUBGCP5 (UniProt Q96RT8)
inactive: [1] -0.104 | zotarolimus 0.064 | [2] 0.073 | gefitinib 0.109 | lapatinib -0.032 | pictilisib -0.083
